PubChem BioAssay AID1224830 | NIAID, 2016
In all, the deposit lists about 18,000 reagents; shown is a random part of them. About 2,900 of all reagents (16%) were called active. 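Calls are made per well; low scores hint the gene aids the LPS response, high scores that it dampens it.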 Repeated entries: four replicate wells of each siRNA pool.

- Aim: 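Genes whose knock-down alters the TNF-alpha reporter response to LPS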 (primary screen)
- System: human THP-1 monocytic leukaemia cells, TNF dual-luciferase reporter clone, PMA-differentiated to macrophage-like cells
- Reagents: siRNA pool against human genes, 50 nM
- Timing: LPS for 4 h, given about 3 days after siRNA transfection
- Challenge: bacterial LPS (TLR4 ligand), 10 ng/ml
- Measured: 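TNF firefly reporter luminescence divided by renilla, normalised to the plate median, then turned into a robust z-score for each replicate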
- Direction: TNF reporter robust z-score: higher = stronger TNF reporter response to LPS
- Active means: 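Each well counts as active if its z-score is over 2.8 or under -1.5; controls are left without a call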

VN1R1 (vomeronasal 1 receptor 1) gave TNF reporter robust z-score -1.28; inactive.
For VN1R1 (vomeronasal 1 receptor 1) the deposit lists TNF reporter robust z-score -0.61; inactive.
VN1R1 (vomeronasal 1 receptor 1) gave TNF reporter robust z-score -0.91; inactive.
VN1R1 (vomeronasal 1 receptor 1) scored TNF reporter robust z-score -0.93; inactive.
For LAMTOR4 (late endosomal/lysosomal adaptor, MAPK and MTOR activator 4), the entry reads TNF reporter robust z-score 0.73; inactive.
Knock-down of LAMTOR4 (late endosomal/lysosomal adaptor, MAPK and MTOR activator 4) came out at: TNF reporter robust z-score 0.91; inactive.
After knock-down of LAMTOR4 (late endosomal/lysosomal adaptor, MAPK and MTOR activator 4), the record shows TNF reporter robust z-score 0.99; inactive.
LAMTOR4 (late endosomal/lysosomal adaptor, MAPK and MTOR activator 4) showed TNF reporter robust z-score 0.88; inactive.
KRTAP11-1 (keratin associated protein 11-1) gave TNF reporter robust z-score 1.3; inactive.
KRTAP11-1 (keratin associated protein 11-1) showed TNF reporter robust z-score 0.98; inactive.
KRTAP11-1 (keratin associated protein 11-1) gave TNF reporter robust z-score -2.09; active.
KRTAP11-1 (keratin associated protein 11-1) scored TNF reporter robust z-score 0.84; inactive.

Reformatted: 2 of the entries above
| Target gene | TNF reporter robust z-score | activity call |
| --- | --- | --- |
| KRTAP11-1 (keratin associated protein 11-1) | 1.3 | inactive |
| KRTAP11-1 (keratin associated protein 11-1) | 0.98 | inactive |

Next reagents:
CFAP65 (cilia and flagella associated protein 65) showed TNF reporter robust z-score 1.26; inactive.
CFAP65 (cilia and flagella associated protein 65) showed TNF reporter robust z-score 2.49; inactive.
Against CFAP65 (cilia and flagella associated protein 65), the values are TNF reporter robust z-score 2.1; inactive.
For CFAP65 (cilia and flagella associated protein 65), the values are TNF reporter robust z-score 0.9; inactive.
Against RGL2 (ral guanine nucleotide dissociation stimulator like 2), the entry reads TNF reporter robust z-score 1.44; inactive.
After knock-down of RGL2 (ral guanine nucleotide dissociation stimulator like 2) the results were TNF reporter robust z-score 2.08; inactive.
Knock-down of RGL2 (ral guanine nucleotide dissociation stimulator like 2) came out at: TNF reporter robust z-score 0.96; inactive.
RGL2 (ral guanine nucleotide dissociation stimulator like 2) scored TNF reporter robust z-score 1.17; inactive.
